Some entries share one result that the patent states for a list of compounds. At least one compound was matched to its structure with a doubt left.
Legend:
[1] = test system: HRECs (Human Retinal Endothelial Cells); test: Screening based on change in cytoskeleton: VEGF-induced actin stress fibers, rhodamine phalloidin staining; assay type: cell-based; details: confluent HRECs pretreated with 10 μg/mL compound for 1 hour before 20 ng/ml VEGF; FIGS. 4 and 5
Method: Confluent HRECs were pretreated with the compounds (10 μg/mL) for 60 minutes before treating with 20 ng/mL VEGF. The cells were then stained with rhodamine phalloidin.
(§1) Human retinal endothelial cells (HRECs) purchased from Cell Systems (USA) were seeded on a 100 mm culture dish containing EGM medium (Life Technologies, USA) containing 20% (w/v) fetal bovine serum (FBS, HyClone, Canada), 100 units/mL penicillin (Invitrogen, USA), 100 μg/mL streptomycin (Invitrogen, USA), 3 ng/mL fibroblast growth factor (Upstate Biotechnology, USA) and 5 units/mL heparin and cultured in a 5% CO2 incubator at 37° C.
It is known that the change in the actin structure of the cytoskeleton is closely related with the permeability of vascular endothelial cells. Increased permeability of vascular endothelial cells leads to an increase in actin stress fibers and a decrease in cortical actin ring structures. Based on this, the ability to inhibit vascular endothelial permeability of the synthesized derivatives of Rk1 was screened. Confluent HRECs were pretreated with […] the synthesized compounds for 1 hour before the treatment with 20 ng/ml VEGF (Upstate Biotechnology). Then, the cells were fixed with 4% paraformaldehyde for 20 minutes at room temperature, and washed 3 times with PBS (pH 7.4). Then, the cells were permeabilized with 0.1% Triton X-100/PBS, and reacted with 0.1 mg/ml rhodamine phalloidin (Molecular Probes) for 1 hour. Then, the cells were observed under a fluorescence microscope (Olympus).

[2] = test system: HRECs (Human Retinal Endothelial Cells); test: Screening of synthesized derivatives for ability to inhibit serum depletion-induced vascular endothelial cell apoptosis (MTT assay, cell morphology); assay type: cell-based; details: serum-free EGM medium, 10 μg/ml compound, after 24 hours, FIGS. 1a-1c
Method: FIGS. 1a-1c and FIGS. 2a-2c show the result of screening Rk1 analogs that protect HRECs (Human Retinal Endothelial Cells) from serum depletion-induced apoptosis. HRECs (3×10^5 cells/well) were seeded on a 24-well plate in EGM9 medium containing 20% fetal bovine serum. The next day, the cells were transferred to a medium containing 10 μg/mL of the synthesized compound. Cell viability was determined by MTT assay 48 hours later. […] Con is indicative of cells treated with DMSO.
as §1
Based on the previous researches conducted by the present inventors, synthesized derivatives of Rk1 having a steroid backbone and having an ability to inhibit vascular endothelial cell apoptosis were screened. Vascular endothelial cells HRECs (3×10^5 cells/well) were plated on a 24-well plate in which 1 ml of EGM medium containing 20% fetal bovine serum was present. The next day, the cells were transferred to serum-free EGM media containing 10 μg/ml of the compounds synthesized in Synthetic Examples 1 and 2. After 24 hours, cell viability was determined by MTT assay (Mosmann T, Journal of Immunological Methods 65(1-2):5563(1983); Cory A H, et al., Cancer Communications 3(7):20712(1991)).

## C=CCO/N=C(\C)[C@H]1CCC2C3CC=C4C[C@@H](OC5C=C[C@H](OC(C)=O)[C@@H](COC(C)=O)O5)CC[C@]4(C)C3CC[C@@]21C (stereo partly drawn) [Sac-1011]
[1]
  ability to inhibit the formation of actin stress fibers induced by VEGF: had an ability to inhibit the formation of actin stress fibers

## CCO/N=C(\C)[C@H]1CCC2C3CC=C4C[C@@H](OC5C=C[C@H](OC(C)=O)[C@@H](COC(C)=O)O5)CC[C@]4(C)C3CC[C@@]21C (stereo partly drawn) [Sac-1013]
[1]
  ability to inhibit the formation of actin stress fibers induced by VEGF: had an ability to inhibit the formation of actin stress fibers

## CCCCO/N=C(\C)[C@H]1CCC2C3CC=C4C[C@@H](OC5C=C[C@H](OC(C)=O)[C@@H](COC(C)=O)O5)CC[C@]4(C)C3CC[C@@]21C (stereo partly drawn) [Sac-1015]
[1]
  ability to inhibit the formation of actin stress fibers induced by VEGF: had an ability to inhibit the formation of actin stress fibers

## CCCCCO/N=C(\C)[C@H]1CCC2C3CC=C4C[C@@H](OC5C=C[C@H](OC(C)=O)[C@@H](COC(C)=O)O5)CC[C@]4(C)C3CC[C@@]21C (stereo partly drawn) [Sac-1016]
[2]
  ability to inhibit apoptosis (cell viability by MTT assay): had an ability to inhibit apoptosis
[1]
  ability to inhibit the formation of actin stress fibers induced by VEGF: had an ability to inhibit the formation of actin stress fibers

## CC(=O)OC[C@H]1OC(O[C@H]2CC[C@@]3(C)C(=CCC4C3CC[C@@]3(C)C4CC[C@@H]3/C(C)=N/OCC(C)C)C2)C=C[C@@H]1OC(C)=O (stereo partly drawn) [Sac-1017]
[2]
  ability to inhibit apoptosis (cell viability by MTT assay): had an ability to inhibit apoptosis

## CC(=O)OC[C@H]1OC(O[C@H]2CC[C@@]3(C)C(=CCC4C3CC[C@@]3(C)C4CC[C@@H]3/C(C)=N/OC3CCCC3)C2)C=C[C@@H]1OC(C)=O (stereo partly drawn) [Sac-1019]
[2]
  ability to inhibit apoptosis (cell viability by MTT assay): had an ability to inhibit apoptosis
[1]
  ability to inhibit the formation of actin stress fibers induced by VEGF: had an ability to inhibit the formation of actin stress fibers

## CC(=O)OC[C@H]1OC(O[C@H]2CC[C@@]3(C)C(=CCC4C3CC[C@@]3(C)C4CC[C@@H]3/C(C)=N/OCCC(C)C)C2)C=C[C@@H]1OC(C)=O (stereo partly drawn) [Sac-1022]
[2]
  ability to inhibit apoptosis (cell viability by MTT assay): had an ability to inhibit apoptosis
[1]
  ability to inhibit the formation of actin stress fibers induced by VEGF: had an ability to inhibit the formation of actin stress fibers

## CC(=O)OC[C@H]1OC(O[C@H]2CC[C@@]3(C)C(=CCC4C3CC[C@@]3(C)C4CC[C@@H]3/C(C)=N/OC3CCCCC3)C2)C=C[C@@H]1OC(C)=O (stereo partly drawn) [Sac-1102]
[2]
  ability to inhibit apoptosis (cell viability by MTT assay): had an ability to inhibit apoptosis

## CC(=O)OC[C@H]1OC(O[C@H]2CC[C@@]3(C)C(=CCC4C3CC[C@@]3(C)C4CC[C@@H]3/C(C)=N/OCC3CCCCC3)C2)C=C[C@@H]1OC(C)=O (stereo partly drawn) [Sac-1103]
[2]
  ability to inhibit apoptosis (cell viability by MTT assay): had an ability to inhibit apoptosis
[1]
  ability to inhibit the formation of actin stress fibers induced by VEGF: had an ability to inhibit the formation of actin stress fibers

## CC(=O)OC[C@H]1OC(O[C@H]2CC[C@@]3(C)C(=CCC4C3CC[C@@]3(C)C4CC[C@@H]3/C(C)=N/OC3C=CCCC3)C2)C=C[C@@H]1OC(C)=O (stereo partly drawn) [Sac-1104]
[2]
  ability to inhibit apoptosis (cell viability by MTT assay): had an ability to inhibit apoptosis
[1]
  ability to inhibit the formation of actin stress fibers induced by VEGF: had an ability to inhibit the formation of actin stress fibers

## COc1ccc(CO/N=C(\C)[C@H]2CCC3C4CC=C5C[C@@H](OC6C=C[C@H](OC(C)=O)[C@@H](COC(C)=O)O6)CC[C@]5(C)C4CC[C@@]32C)cc1 (stereo partly drawn) [Sac-1105]
[1]
  ability to inhibit the formation of actin stress fibers induced by VEGF: had an ability to inhibit the formation of actin stress fibers

## CC(=O)OC[C@H]1OC(O[C@H]2CC[C@@]3(C)C(=CCC4C3CC[C@@]3(C)C4CC[C@@H]3/C(C)=N/OCc3ccc(C(F)(F)F)cc3)C2)C=C[C@@H]1OC(C)=O (stereo partly drawn) [Sac-1107]
[2]
  ability to inhibit apoptosis (cell viability by MTT assay): had an ability to inhibit apoptosis
[1]
  ability to inhibit the formation of actin stress fibers induced by VEGF: had an ability to inhibit the formation of actin stress fibers

## CC(=O)OC[C@H]1OC(O[C@H]2CC[C@@]3(C)C(=CCC4C3CC[C@@]3(C)C4CC[C@@H]3/C(C)=N/OCc3ccc(I)cc3)C2)C=C[C@@H]1OC(C)=O (stereo partly drawn) [Sac-1108]
[2]
  ability to inhibit apoptosis (cell viability by MTT assay): had an ability to inhibit apoptosis

## CC(=O)OC[C@H]1OC(O[C@H]2CC[C@@]3(C)C(=CCC4C3CC[C@@]3(C)C4CC[C@@H]3/C(C)=N/OCc3ccc(Br)cc3)C2)C=C[C@@H]1OC(C)=O (stereo partly drawn) [Sac-1109]
[2]
  ability to inhibit apoptosis (cell viability by MTT assay): had an ability to inhibit apoptosis

## CC(=O)OC[C@H]1OC(O[C@H]2CC[C@@]3(C)C(=CCC4C3CC[C@@]3(C)C4CC[C@@H]3/C(C)=N/OCc3ccc(F)cc3)C2)C=C[C@@H]1OC(C)=O (stereo partly drawn) [Sac-1110]
[2]
  ability to inhibit apoptosis (cell viability by MTT assay): had an ability to inhibit apoptosis

## CC(=O)OC[C@H]1OC(O[C@H]2CC[C@@]3(C)C(=CCC4C3CC[C@@]3(C)C4CC[C@@H]3/C(C)=N/OCc3ccc([N+](=O)[O-])cc3)C2)C=C[C@@H]1OC(C)=O (stereo partly drawn) [Sac-1111]
[2]
  ability to inhibit apoptosis (cell viability by MTT assay): had an ability to inhibit apoptosis

## CC(=O)OC[C@H]1OC(O[C@H]2CC[C@@]3(C)C(=CCC4C3CC[C@@]3(C)C4CC[C@@H]3/C(C)=N/OCc3ccc(C(C)C)cc3)C2)C=C[C@@H]1OC(C)=O (stereo partly drawn) [Sac-1112]
[2]
  ability to inhibit apoptosis (cell viability by MTT assay): had an ability to inhibit apoptosis

## CC(=O)OC[C@H]1OC(O[C@H]2CC[C@@]3(C)C(=CCC4C3CC[C@@]3(C)C4CC[C@@H]3/C(C)=N/OCc3ccc(Cl)cc3)C2)C=C[C@@H]1OC(C)=O (stereo partly drawn) [Sac-1113]
[2]
  ability to inhibit apoptosis (cell viability by MTT assay): had an ability to inhibit apoptosis

## COc1ccccc1CO/N=C(\C)[C@H]1CCC2C3CC=C4C[C@@H](OC5C=C[C@H](OC(C)=O)[C@@H](COC(C)=O)O5)CC[C@]4(C)C3CC[C@@]21C (stereo partly drawn) [Sac-1114]
[2]
  ability to inhibit apoptosis (cell viability by MTT assay): had an ability to inhibit apoptosis
[1]
  ability to inhibit the formation of actin stress fibers induced by VEGF: had an ability to inhibit the formation of actin stress fibers

## CC(=O)OC[C@H]1OC(O[C@H]2CC[C@@]3(C)C(=CCC4C3CC[C@@]3(C)C4CC[C@@H]3/C(C)=N/Oc3ccccc3)C2)C=C[C@@H]1OC(C)=O (stereo partly drawn) [Sac-1115]
[2]
  ability to inhibit apoptosis (cell viability by MTT assay): had an ability to inhibit apoptosis

## CC(=O)OC[C@H]1OC(O[C@H]2CC[C@@]3(C)C(=CCC4C3CC[C@@]3(C)C4CC[C@@H]3/C(C)=N/OCc3ccccc3Cl)C2)C=C[C@@H]1OC(C)=O (stereo partly drawn) [Sac-1117]
[2]
  ability to inhibit apoptosis (cell viability by MTT assay): had an ability to inhibit apoptosis

## CC(=O)OC[C@H]1OC(O[C@H]2CC[C@@]3(C)C(=CCC4C3CC[C@@]3(C)C4CC[C@@H]3/C(C)=N/OCc3cccc(Cl)c3)C2)C=C[C@@H]1OC(C)=O (stereo partly drawn) [Sac-1118]
[2]
  ability to inhibit apoptosis (cell viability by MTT assay): had an ability to inhibit apoptosis

## CC(=O)OC[C@H]1OC(O[C@H]2CC[C@@]3(C)C(=CCC4C3CC[C@@]3(C)C4CC[C@@H]3/C(C)=N/Oc3ccccc3Cl)C2)C=C[C@@H]1OC(C)=O (stereo partly drawn) [Sac-1119]
[2]
  ability to inhibit apoptosis (cell viability by MTT assay): had an ability to inhibit apoptosis
